# Source: patent US8338472B2, “Hexahydrocyclopentyl[F]indazole carboxamides and derivatives thereof as selective glucocorticoid receptor modulators” (Merck Sharp & Dohme Corp., priority 2008, dated 2012)
# Some entries share one result that the patent states for a list of compounds.
# How the values were obtained:
# human GR = molecular target: T1, human GR (Homo sapiens, UniProt P04150); assay: Transrepression Assay (GITAR), TNFα-β-lactamase reporter gene in U937 cells; assay type: cell-based; conditions: 100 nM dexamethasone = 100%
# T1 construct: U937 cells contain an endogenous glucocorticoid receptor (GR); endogenous in cells; host or cells: U937 cells stably transfected with the TNF-alpha promoter/beta-lactamase reporter
# T1 sequence (P04150 1-777): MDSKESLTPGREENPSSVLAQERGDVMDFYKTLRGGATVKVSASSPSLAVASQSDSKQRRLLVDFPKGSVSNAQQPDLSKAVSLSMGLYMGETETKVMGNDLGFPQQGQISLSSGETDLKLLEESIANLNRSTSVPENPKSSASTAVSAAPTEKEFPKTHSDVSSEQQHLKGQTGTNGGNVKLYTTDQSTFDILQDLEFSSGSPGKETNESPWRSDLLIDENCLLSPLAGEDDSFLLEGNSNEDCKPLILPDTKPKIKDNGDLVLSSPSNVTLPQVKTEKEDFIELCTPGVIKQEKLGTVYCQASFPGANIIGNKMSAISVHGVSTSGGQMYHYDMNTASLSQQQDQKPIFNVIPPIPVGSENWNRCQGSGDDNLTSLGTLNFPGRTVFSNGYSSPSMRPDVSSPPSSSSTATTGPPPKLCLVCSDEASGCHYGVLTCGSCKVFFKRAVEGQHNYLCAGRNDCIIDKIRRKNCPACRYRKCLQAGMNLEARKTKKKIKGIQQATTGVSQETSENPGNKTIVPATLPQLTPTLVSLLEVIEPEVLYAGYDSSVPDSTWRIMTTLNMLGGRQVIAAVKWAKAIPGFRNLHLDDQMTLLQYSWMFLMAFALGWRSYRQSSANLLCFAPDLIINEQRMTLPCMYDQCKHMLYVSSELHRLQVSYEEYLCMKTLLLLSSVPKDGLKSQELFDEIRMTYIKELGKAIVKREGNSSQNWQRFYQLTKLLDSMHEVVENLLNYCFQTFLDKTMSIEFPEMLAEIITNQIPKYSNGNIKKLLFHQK
# From the text: Transrepression Assay (GITAR)
# This assay assesses the ability of test compounds to control transcription from the TNFα-β-lactamase reporter gene in U937 cells, a human myelomonocytic leukemia cell line that naturally expresses the human GR. The assay measures compound dependent-repression of the TNFa promoter linked to a reporter gene.
# The human U937 cells that had been stablely transfected with the TNF-α promoter driving β-lactamase are used for this assay. U937 cells contain an endogenous glucocorticoid receptor (GR). Cells are maintained in RPMI 1640 Growth medium (Gibco Cat#11875-093) containing 25 mM HEPES, 10% FBS, 2 mM L-Glutamine, 1 mM Sodium pyruvate, 25 μg/ml Gentamicin (Gibco Cat#15710-064), 1:1000 2-Mercaptoethanol (Gibco Cat#21985-023) and 0.8 mg/ml G418 (Gibco Cat#10131-027). The density of the cells in the flask needs to be about 1×10^6−3×10^6/ml at the time of harvest. Usually, the cells are split to 1.2˜1.4×10^5/ml (1:10) 3 days prior to the assay. 50,000 cells/well are plated in 96 well black-walled plates the day of assay. Test compounds are added 10 pt/well, and cells are incubated at 37° C. for 30-45 min. For assaying compounds, first dilute 1:10 in DMSO to make 1 mM, then further dilute 1:100 in medium to make 10× stock prior to adding to the cells. […]
# [1] = molecular target: T2, glucocorticoid receptor (GR) (Homo sapiens, UniProt P04150); assay: Ligand binding assay (GR BIND), 3H-dexamethasone displacement in MDA-MB-453 cell lysate; conditions: read-out: IC50 in the ligand binding assay; DEX as a reference
# T2 sequence (P04150 1-777): T1 sequence (P04150 1-777)
substance,measurement,setting,value
"(4αR,5S)-N,N-dibutyl-1-(4-fluorophenyl)- 4α-methyl-1,4,4α,5,6,7- hexahydrocyclopenta[f]indazole-5- carboxamide [Compound 9]",maximal activity in the transrepression assay (GITAR),human GR,greater than 5%
same,IC50,[1],< 1 µM
